Like-named read-outs stand apart in the source and are kept apart here. Results are given in words; binding and its absence hold for the method and conditions named. Binding seen in cells or lysates may run through a third protein. Some binding calls cover weakened binding; strength is not graded here.

The chains behind the UniProt entries cited, without tags or fusion partners. Where a name states a change or a piece, a line headed by the entry shows the natural chain unless it says otherwise. A line that says so, or that is headed by a name, gives the form on record, which may keep a tag or linker.
VN-TREK-1 / VC-TREK-1 (human TREK-1c with a half of Venus for BiFC) (O95069-3, form named): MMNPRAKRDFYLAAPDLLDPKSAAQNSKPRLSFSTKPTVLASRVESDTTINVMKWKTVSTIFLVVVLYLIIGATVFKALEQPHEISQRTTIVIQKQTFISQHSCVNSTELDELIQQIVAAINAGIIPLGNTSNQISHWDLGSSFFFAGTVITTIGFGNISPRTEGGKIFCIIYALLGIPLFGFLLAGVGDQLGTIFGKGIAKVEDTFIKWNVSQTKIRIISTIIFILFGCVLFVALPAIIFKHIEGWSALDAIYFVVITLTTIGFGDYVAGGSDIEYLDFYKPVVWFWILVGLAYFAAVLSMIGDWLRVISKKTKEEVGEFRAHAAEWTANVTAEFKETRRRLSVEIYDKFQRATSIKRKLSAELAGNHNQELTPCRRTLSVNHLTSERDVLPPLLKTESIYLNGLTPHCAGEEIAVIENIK

For experiment [1], the target named is POPDC1-Myc (Popeye domain-containing protein 1, Myc-tagged) (mouse) (UniProt Q9ES83). Description: co-IP.
Experiment [2] deals with VN-TREK-1 / VC-TREK-1 (human TREK-1c with a half of Venus for BiFC) (human) (UniProt O95069). As to the kind of experiment: split reporter.
Experiment [3] has as its target T1, POPDC1-VN / POPDC1-VC (mouse POPDC1 with a half of Venus for BiFC) (mouse) (UniProt Q9ES83).
T1 sequence: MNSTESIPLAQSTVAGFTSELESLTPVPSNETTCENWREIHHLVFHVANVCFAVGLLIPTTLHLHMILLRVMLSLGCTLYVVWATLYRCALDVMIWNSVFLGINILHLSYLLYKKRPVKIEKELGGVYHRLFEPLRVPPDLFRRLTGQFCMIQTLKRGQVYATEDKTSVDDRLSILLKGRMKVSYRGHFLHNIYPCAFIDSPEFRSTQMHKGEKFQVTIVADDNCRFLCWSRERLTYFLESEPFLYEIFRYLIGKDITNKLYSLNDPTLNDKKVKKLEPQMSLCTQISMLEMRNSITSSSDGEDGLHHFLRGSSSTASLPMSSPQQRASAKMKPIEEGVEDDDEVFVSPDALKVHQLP
Description: split reporter.

Experiment [4] deals with VN-TREK-1 / VC-TREK-1 (human TREK-1c with a half of Venus for BiFC) (human) (UniProt O95069). As to the kind of experiment: split reporter. This is another data set of the same source.

In the case of “GFP-tagged epidermal growth factor receptor (EGFR) (from UniProt P00533 25-1210)”, the binding entry in experiment [1] is given as “no binding”.

Take “VN-TREK-1 / VC-TREK-1 (human TREK-1c with a half of Venus for BiFC) (from UniProt O95069-3 1-422)”: the binding entry in experiment [2], in experiment [3] and in experiment [4] was “binds” throughout.

The values are drawn from paper doi:10.1101/2021.12.21.473719.
